# Drug screen on melanoma cell lines: apoptosis marker

Source: doi:10.1371/journal.pone.0140310, primary screening data, rounded.

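Human melanoma cells were exposed to two drugs together for 72 h in 1,536-well plates and read by automated microscopy after fixing and staining. Values are the share of nuclei positive for cleaved PARP as a percentage of the same share in the DMSO control: 100 is the control level, higher means more apoptosis. Concentrations were fixed for each drug; these are the higher of two levels. These are primary screening values without error estimates. Basal and induced levels differ widely between cell lines.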
This is part of the screen, not chosen by result.
An entry leaves out what has no value listed here.
A dash means that no value is listed here.

Drug key:
sunitinib: CCN(CC)CCNC(=O)c1c(C)[nH]c(/C=C2\C(=O)Nc3ccc(F)cc32)c1C at 2 µM
fludarabine: Nc1nc(F)nc2c1ncn2[C@@H]1O[C@H](CO)[C@@H](O)[C@@H]1O at 1 µM
Src-I1: COc1cc2ncnc(Nc3ccc(Oc4ccccc4)cc3)c2cc1OC at 10 µM
vismodegib: CS(=O)(=O)c1ccc(C(=O)Nc2ccc(Cl)c(-c3ccccn3)c2)c(Cl)c1 at 5 µM
ENMD-2076: Cc1cc(Nc2cc(N3CCN(C)CC3)nc(/C=C/c3ccccc3)n2)n[nH]1 at 0.2 µM
tozasertib: Cc1cc(Nc2cc(N3CCN(C)CC3)nc(Sc3ccc(NC(=O)C4CC4)cc3)n2)n[nH]1 at 0.03 µM
gemcitabine: Nc1ccn([C@@H]2O[C@H](CO)[C@@H](O)C2(F)F)c(=O)n1 at 0.002 µM
CHIR-265: Cn1c(Nc2ccc(C(F)(F)F)cc2)nc2cc(Oc3ccnc(-c4ncc(C(F)(F)F)[nH]4)c3)ccc21 at 0.4 µM

Combination,SK-MEL-28,COLO 792,SK-MEL-5,WM451Lu,501mel,A2058,WM1716,WM3619,SK-MEL-2,A101D,A375,UACC-257,WM115,UACC-62,MeWo
CHIR-265 and fludarabine,1000,1470,2370,640,-,226,212,223,2410,83.7,405,6390,1060,509,143
tozasertib and CHIR-265,250,2640,881,613,-,420,175,173,387,659,174,61.0,1270,273,143
Src-I1 and CHIR-265,140,2010,820,467,272,267,114,235,138,158,406,95.9,398,517,124
sunitinib and fludarabine,786,358,3030,80.2,-,78.8,60.6,103,813,59.5,660,4310,210,217,180
ENMD-2076 and sunitinib,67.6,173,216,69.2,-,279,174,112,73.2,128,158,72.3,152,212,144
gemcitabine and tozasertib,30.5,153,85.7,251,-,174,93.8,143,164,37.9,76.2,79.1,182,129,233
ENMD-2076 and fludarabine,1260,180,6240,147,-,165,94.8,85.5,2620,151,685,7560,286,78.8,191
Src-I1 and vismodegib,228,43.2,175,113,124,136,107,258,111,292,66.2,63.8,222,235,120
vismodegib and sunitinib,99.4,331,52.5,120,-,261,65.0,135,112,94.0,83.3,37.0,72.3,141,86.1
sunitinib and gemcitabine,159,186,86.5,152,-,182,109,231,110,200,115,141,191,148,208
Src-I1 and tozasertib,143,87.6,205,89.2,189,123,47.3,131,104,289,48.4,105,229,405,143
vismodegib and CHIR-265,85.8,998,1020,108,-,276,89.7,228,235,217,150,43.4,670,336,123
CHIR-265 and gemcitabine,418,557,720,125,-,277,118,160,178,201,186,127,773,298,194
fludarabine and Src-I1,2070,130,388,71.2,885,68.4,61.3,121,2390,99.2,341,511,157,168,55.3
Src-I1 and sunitinib,87.1,87.4,207,1150,833,218,23.7,197,67.3,250,53.4,20.6,172,192,135
tozasertib and vismodegib,56.2,110,100,35.4,-,123,110,106,81.8,157,61.3,48.4,384,168,112
CHIR-265 and sunitinib,67.6,785,1220,491,-,152,129,211,380,284,263,93.5,1270,226,85.0
vismodegib and gemcitabine,96.8,92.8,33.4,338,-,122,99.9,149,104,71.6,41.7,86.1,168,98.5,121
vismodegib and ENMD-2076,81.7,78.2,79.0,122,-,114,46.5,109,87.1,82.4,99.5,38.1,246,156,95.2
fludarabine and tozasertib,997,171,2730,123,-,172,76.6,119,497,282,254,4560,734,125,120
fludarabine and vismodegib,3340,117,1970,37.9,-,87.7,66.9,89.6,1950,64.2,516,4390,103,85.7,94.7
tozasertib and sunitinib,197,223,253,175,-,265,94.9,119,192,110,146,45.6,338,148,165
ENMD-2076 and Src-I1,98.3,146,148,39.6,-,156,28.0,160,85.5,297,86.4,63.2,266,259,144
ENMD-2076 and CHIR-265,143,777,1370,63.9,-,225,108,153,89.3,53.0,215,144,1840,320,81.3
ENMD-2076 and tozasertib,117,155,252,117,-,263,137,124,381,115,114,87.7,567,159,113
ENMD-2076 and gemcitabine,42.3,149,144,168,-,156,113,206,125,69.7,133,118,54.9,94.0,179
fludarabine and gemcitabine,1090,241,5600,325,-,301,231,229,2630,108,974,6690,264,71.8,272
gemcitabine and Src-I1,135,162,75.5,62.2,109,134,76.5,147,16.8,166,51.9,129,87.7,253,210

2 of the entries, repeated:

{"combination": "sunitinib and fludarabine", "SK-MEL-28": 786, "COLO 792": 358, "SK-MEL-5": 3030, "WM451Lu": 80.2, "A2058": 78.8, "WM1716": 60.6, "WM3619": 103, "SK-MEL-2": 813, "A101D": 59.5, "A375": 660, "UACC-257": 4310, "WM115": 210, "UACC-62": 217, "MeWo": 180}
{"combination": "gemcitabine and tozasertib", "SK-MEL-28": 30.5, "COLO 792": 153, "SK-MEL-5": 85.7, "WM451Lu": 251, "A2058": 174, "WM1716": 93.8, "WM3619": 143, "SK-MEL-2": 164, "A101D": 37.9, "A375": 76.2, "UACC-257": 79.1, "WM115": 182, "UACC-62": 129, "MeWo": 233}